Experimental data reported in publication PMC6008332.
Results are given in words; binding and its absence hold for the method and conditions named. In cells and extracts the contact can be indirect. Some entries that bind do so weakly or less than the wild type. Blank lines part the entries; values can stand above or below the binder they belong to.

Sequences of proteins named here, by UniProt entry; tags and fusion partners are left off. A change or cut given only in a name is not applied to a line headed by its entry. A line that says so, or that is headed by a name, gives the form on record, which may keep a tag or linker.
UniProt P26369: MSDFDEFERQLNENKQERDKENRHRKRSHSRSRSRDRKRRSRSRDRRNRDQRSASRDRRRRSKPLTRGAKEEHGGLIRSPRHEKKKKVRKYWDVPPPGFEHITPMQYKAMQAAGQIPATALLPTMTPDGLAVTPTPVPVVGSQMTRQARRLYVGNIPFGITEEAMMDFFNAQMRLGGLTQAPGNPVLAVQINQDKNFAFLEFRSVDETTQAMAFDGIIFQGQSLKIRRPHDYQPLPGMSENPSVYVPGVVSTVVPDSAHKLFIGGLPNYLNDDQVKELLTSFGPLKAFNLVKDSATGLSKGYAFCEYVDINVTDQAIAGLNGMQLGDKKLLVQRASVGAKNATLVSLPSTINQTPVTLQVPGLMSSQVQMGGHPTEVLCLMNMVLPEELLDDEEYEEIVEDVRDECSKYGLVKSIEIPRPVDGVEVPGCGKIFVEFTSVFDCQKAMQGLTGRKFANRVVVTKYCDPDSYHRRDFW
UniProt P26368: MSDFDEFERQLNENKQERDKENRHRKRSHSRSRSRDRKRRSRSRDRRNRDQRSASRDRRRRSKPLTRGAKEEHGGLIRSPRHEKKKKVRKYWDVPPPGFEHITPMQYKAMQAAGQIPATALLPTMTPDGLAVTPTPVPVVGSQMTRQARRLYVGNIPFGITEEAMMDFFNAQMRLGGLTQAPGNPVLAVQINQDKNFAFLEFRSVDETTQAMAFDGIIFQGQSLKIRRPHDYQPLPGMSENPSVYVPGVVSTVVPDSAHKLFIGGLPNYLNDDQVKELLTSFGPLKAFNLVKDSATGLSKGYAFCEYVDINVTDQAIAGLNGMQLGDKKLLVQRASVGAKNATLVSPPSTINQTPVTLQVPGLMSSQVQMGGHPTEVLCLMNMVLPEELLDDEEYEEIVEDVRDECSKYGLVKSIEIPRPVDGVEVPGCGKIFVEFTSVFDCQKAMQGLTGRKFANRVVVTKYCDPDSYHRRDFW
EGFP-tagged U2AF2Δ27-62 (P26368, form named): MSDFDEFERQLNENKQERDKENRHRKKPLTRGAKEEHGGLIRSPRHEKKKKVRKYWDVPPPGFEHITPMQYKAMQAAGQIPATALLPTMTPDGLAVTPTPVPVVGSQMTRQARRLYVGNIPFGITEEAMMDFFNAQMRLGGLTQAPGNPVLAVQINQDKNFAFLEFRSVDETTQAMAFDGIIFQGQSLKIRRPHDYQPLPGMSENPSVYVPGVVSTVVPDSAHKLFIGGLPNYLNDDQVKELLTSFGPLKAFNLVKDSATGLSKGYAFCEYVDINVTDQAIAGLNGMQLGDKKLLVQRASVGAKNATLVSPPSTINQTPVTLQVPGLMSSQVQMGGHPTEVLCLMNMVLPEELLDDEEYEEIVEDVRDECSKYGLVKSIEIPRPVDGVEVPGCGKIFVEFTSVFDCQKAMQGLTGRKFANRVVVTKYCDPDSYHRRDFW

Experiments:
[1] = biological target: U2AF2, endogenous, MEF cells (mouse (endogenous in MEF)) (UniProt P26369); assay: co-IP; anti-U2AF2 antibody or control IgG in PTEN+/+ and PTEN−/− MEF cells; immunoblot
[2] = biological target: EGFP-tagged U2AF2 full length, P26368; assay: co-IP; EGFP, EGFP-tagged U2AF2-FL or U2AF2Δ27-62 transfected into 293T-PTENΔ cells (legend; text: 293T cells); GFP-Trap; immunoblot for endogenous proteins; conditions: remark: other sources report otherwise
EGFP-tagged U2AF2Δ27-62 = EGFP-tagged U2AF2Δ27-62 (UniProt P26368); assay: as above

- binding [1]: binds
B1: U2AF1, endogenous, MEF cells (protein, UniProt Q9D883 1-239)
chain: MAEYLASIFGTEKDKVNCSFYFKIGACRHGDRCSRLHNKPTFSQTIALLNIYRNPQNSSQSADGLRCAVSDVEMQEHYDEFFEEVFTEMEEKYGEVEEMNVCDNLGDHLVGNVYVKFRREEDAEKAVIDLNNRWFNGQPIHAELSPVTDFREACCRQYEMGECTRGGFCNFMHLKPISRELRRELYGRRRKKHRSRSRSRERRSRSRDRGRGGGGGGGGGGGRERDRRRSRDRERSGRF

- binding [2]: binds
B2: U2AF1, endogenous, 293T-derived cells, Q01081 1-240 (protein)
chain: MAEYLASIFGTEKDKVNCSFYFKIGACRHGDRCSRLHNKPTFSQTIALLNIYRNPQNSSQSADGLRCAVSDVEMQEHYDEFFEEVFTEMEEKYGEVEEMNVCDNLGDHLVGNVYVKFRREEDAEKAVIDLNNRWFNGQPIHAELSPVTDFREACCRQYEMGECTRGGFCNFMHLKPISRELRRELYGRRRKKHRSRSRSRERRSRSRDRGRGGGGGGGGGGGGRERDRRRSRDRERSGRF

- binding (EGFP-tagged U2AF2Δ27-62): binds
B3: U2AF1, endogenous, 293T-derived cells (protein, UniProt Q01081 1-240)
chain: MAEYLASIFGTEKDKVNCSFYFKIGACRHGDRCSRLHNKPTFSQTIALLNIYRNPQNSSQSADGLRCAVSDVEMQEHYDEFFEEVFTEMEEKYGEVEEMNVCDNLGDHLVGNVYVKFRREEDAEKAVIDLNNRWFNGQPIHAELSPVTDFREACCRQYEMGECTRGGFCNFMHLKPISRELRRELYGRRRKKHRSRSRSRERRSRSRDRGRGGGGGGGGGGGGRERDRRRSRDRERSGRF
